The whole screen tested about 52,000 sequences, of which about 210 (0.4%) were called active.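 The calls were made as follows: active = gene whose silencing raises cell survival under the drug, median off-target-corrected z-score across its silencing RNAs 2 or more; inactive = the rest.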 This is one part of the list.
assay: Resistance to Poly (ADP-Ribose) Polymerase inhibitor: Gene Identification via Genome-wide siRNA Screen; details: mouse BRCA2 R2336H ES cells, olaparib, CellTiter-Glo viability; active compounds read high
Text: The role of Poly (ADP-Ribose) Polymerase (PARP) proteins in DNA repair has been elegantly utilized for the synthetic lethality-based treatment of BRCA-deficient tumors by PARP inhibitors. PARP inhibitors are now being used for treatment of BRCA-deficient breast and ovarian cancers. […] While several mechanisms of drug resistance have been identified, majority of these tumors develop drug resistance due to unknown causes. To identified novel regulators of chemo-resistance in BRCA2-mutated cells, we performed a genome wide siRNA library screen. We have found ES cells expressing a hypomorphic allele of BRCA2 to be hypersensitive to PAPP inhibitors (such as olaparib). We used ES cells expressing a mutant allele of BRCA2 that has a single amino acid substitution at position 2336 (arginine to histidine, R2336H). The screen was conducted using an Ambion (Thermo) Silencer Mouse Genome siRNA collection. The library targets 17,575 mouse genes with 3 siRNAs per gene. TET2 (E130014J05Rik) was identified as a top candidate.
Transfections were performed in 384 well plates (Corning 3707). Plates were coated with 0.1% gelatin in H2O overnight at ambient temperature. Gelatin solution was aspirated (BioTek EL406) and siRNAs were printed using a Bravo VPrep liquid handler integrated within a BioCel automation platform (Agilent). Cell viability was measured using CellTiter Glo (Promega). For transfections, […] of serum free media containing Lipofectamine RNAiMax […] was added to wells containing siRNA (0.8pmol). Lipid and siRNA were allowed to complex for 45 min at ambient temperature before addition of 1000 cells in DMEM, 30% FBS to yield final transfection mixtures containing 20 nM siRNA in DMEM, 15% FBS. PARPi (olaparib, AZD2281) was added 48 h post-transfection (500 nM) and viability (CellTiter Glo, Promega) was assayed 72 h later on a PerkinElmer Envision 2104 Multilabel plate reader. Ambion Silencer Select Negative Control #2 was incorporated on all screening plates (16 wells) and the median negative control value on each plate was used for normalization. An siRNA targeting Trp53 was used as a positive control. This control yielded a median protective effect of ~1.9 fold versus negative control throughout the screen. The median absolute deviation (MAD) based z-score was calculated for each siRNA. Genes were then ranked by taking the median value for all siRNAs tested against a given gene. Scores were also adjusted for seed-based off-target effects to help deprioritize likely false positives.

Sequence | z-score
CGGGUUGUACCUGAGUCUGTT against Tmpit | inactive: -0.144
CCAAGACCCUAAUAUCUAUTT against 2610204L23Rik | inactive: 0.739
CGGCAACAAAUUCUACUCUTT against Ambp | inactive: 0.195
GGAGUUUUCAGCAACAAAUTT against Fgf5 | inactive: 0.296
GCAUGAUGCAUACAAAGGCTT against Etfa | inactive: -0.875
GGAGCUAGCCAACUUCGAUTT against Lisch7 | inactive: 0.778
GGUUUGUAUUGUAACUUUGTT against Abi1 | inactive: -0.0984
GGAAAAUCCCUCUUUGGCUTT against Sez6l2 | inactive: 0.73
CCCAGGAUAUAAUUCAACUTT against 1300003K24Rik | inactive: 1.38
CCUAGACGUGACUUAAUAUTT against Rabggtb | inactive: 0.7
GCCAUUUCCUACAAUGCUUTT against Olfr1443 | inactive: -0.402
GGUACGAAGUCAAAGUGAATT against Dnmt3l | inactive: 0.0858
GGCAUGGUGGGACAUUUCUTT against Pla1a | inactive: -1.98
GCAUUGAAGUCACCUCCACTT against Clcn2 | inactive: 0.659
CCGAAAGGCUGGUACAUUCTT against Kin | inactive: -1.77
GGAAAAGCAACACAUCUAUTT against Chst7 | inactive: -0.488
GGCGAUGACAAGGAUCCUUTT against 1810044O22Rik | inactive: 0.409
GGAGUUUAUGAGGAACUCGTT against Zwint | inactive: 0.663
GGACAGUUAGAUGGAUUGUTT against Msc | inactive: -0.314
GGAGUUUGUUAACAGAGUATT against Pcyt1b | inactive: -0.289
CGAGGUCGAUGGAUAAAGGTT against Scnm1 | inactive: 0.16
GCUGUGUAUAAACAUCCUATT against Dscr5 | inactive: 0.996
GCUAACAUUGUAAAUGCACTT against Dmrta1 | inactive: 0.847
CCUCGAAUUACGUAUGUUUTT against Fyn | inactive: 0.663
GCAUAAAACACUAAGGAAATT against Csnk | inactive: -1.11
GCUUACUGUCCCUUAAGUUTT against A930005I04Rik | inactive: -0.182

Two consecutive entries out of the list so far, quoted:
Sequence | z-score
CCUCGAAUUACGUAUGUUUTT against Fyn | inactive: 0.663
GCAUAAAACACUAAGGAAATT against Csnk | inactive: -1.11

Next entries follow:

Sequence | z-score
CCAGUUGAAAUAUUGAGCATT against Mbnl3 | inactive: 0.155
GGCUACAGAAGGUGUUCAGTT against Klra22 | inactive: -2.23
GGACAAGAAAAAGUCCAGATT against Dhx38 | inactive: 0.974
AAGGAAGUCUGUCCAAGGUTT against Olfr192 | inactive: -1.41
GGUCAAAGAGUUCUGUGAATT against Ppp2r1a | inactive: -1.45
GGAGGUGGAACAAAUAUUUTT against 0610009E20Rik | inactive: 0.371
GCUAACCAUGUGACAAUAATT against Timm8a | inactive: -0.132
GGCCAACCUGUUCAUCAGCTT against Bdkrb1 | inactive: 0.956
GGUUUGCUAGCUGACAACCTT against Dpep1 | inactive: 1.32
GGAGCUGAGCAGUGAUGAATT against 4933437K13Rik | inactive: -0.622
GGACUGAUUGAUAAAGUCATT against Srp54 | inactive: -1.33
GGACUGUUGAAUAAAACCUTT against Rnps1 | inactive: -1.02
GGAGAAAGAGGAGAAGAAATT against 4931414P19Rik | inactive: -1.86
CCCUAAUAAUCAAUGCAUCTT against 2010002M12Rik | inactive: 0.596
GUCCAGAGUGACCACAUUUTT against Pemt | inactive: -1.32
GGGAACCAGGGACUUUGAUTT against LOC224833 | inactive: -0.399
CGGGAGACUGGUUAUCAACTT against Tssc1 | inactive: 0.858
GGUCGACUGAAGGCCUUUUTT against Olfr1339 | inactive: -1.43
GGGAGCAGUAGCAGUGUCATT against Zfp403 | inactive: 1.82
GGAGCUGGACAAGUUCAUGTT against Ush3a | inactive: -1.39
GGAUGAUGGAGGGAAACUUTT against D330028D13Rik | inactive: -1.29
GGUGACAUUGUAAUAACCATT against Sult1b1 | inactive: -1.01
CCAGAGUACAGUGUAGUCATT against Hspb6 | inactive: -2.5
GGACAUUGUGCUAUUUUAATT against Mepe | inactive: 2.35
GGGAAACUCUGCAUGAGUATT against Odz1 | inactive: -0.167
GGAAUCUCAAUGAAAGAUGTT against B830017A01Rik | inactive: 0.492
